{
  "source": "patent EP3697444B1",
  "about": "“LIQUID COMPOSITION FOR USE AND AS AN ANTI-INFLAMMATORY” (Alfakjn S.r.l., priority 2017, dated 2019)",
  "assay": "NMR DOSY diffusion coefficient measurement",
  "assay_type": "physicochemical",
  "settings": "DOSY diffusion coefficient of the CH3 signal of MSM, D2O",
  "note": "For at least one compound, name, drawing or mass did not settle the structure.",
  "data": [
    {"smiles": "CS(C)(=O)=O", "note": "[Sample S3410, Methylsulfonylmethane]", "values": [
      {"measurement": "CH3 (m^2/s)", "value": "1.27 × 10-9 m^2/s"}
    ]}
  ]
}
